Reference: the supplement of paper PMC4604168 (melanoma cell lines)
Some of the results follow. Many values rest on one well or one pass, so single values are uncertain.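 Cells were imaged in 1,536-well plates, and nuclei stained with an antibody against cleaved PARP were counted against all DNA-stained nuclei to give the apoptosis fraction. Screening doses were chosen to leave most cells alive, and resting and induced cleaved-PARP levels differ strongly between cell lines.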

test system: CBRC034 (line from a melanoma biopsy); experiment: cleaved PARP positive nuclei fraction relative to DMSO control; melanoma cells; higher = more apoptosis; conditions: library dose: low library concentration; 72 h

Compound	cleaved PARP positive nuclei fraction [%]
CC[C@]1(O)C[C@H]2CN(CCc3c([nH]c4ccccc34)[C@@](C(=O)OC)(c3cc4c(cc3OC)N(C=O)[C@H]3[C@@](O)(C(=O)OC)[C@H](OC(C)=O)[C@]5(CC)C=CCN6CC[C@]43[C@@H]65)C2)C1 [vincristine] + CO[C@H]1C[C@@H]2CC[C@@H](C)[C@@](O)(O2)C(=O)C(=O)N2CCCC[C@H]2C(=O)O[C@H]([C@H](C)C[C@@H]2CC[C@@H](OCCO)[C@H](OC)C2)CC(=O)[C@H](C)/C=C(\C)[C@@H](O)[C@@H](OC)C(=O)[C@H](C)C[C@H](C)/C=C/C=C/C=C/1C [everolimus] (first compound 0.0001 µM, partner dose 0.02 µM)	113
COc1cc([C@@H]2c3cc4c(cc3[C@@H](O[C@@H]3O[C@@H]5CO[C@@H](C)O[C@H]5[C@H](O)[C@H]3O)[C@H]3COC(=O)[C@H]23)OCO4)cc(OC)c1O [etoposide] + CC1(C)CCC(c2ccc(Cl)cc2)=C(CN2CCN(c3ccc(C(=O)NS(=O)(=O)c4ccc(N[C@H](CCN5CCOCC5)CSc5ccccc5)c(S(=O)(=O)C(F)(F)F)c4)cc3)CC2)C1 [ABT263] (first compound 0.02 µM, partner dose 0.4 µM)	112
CC[C@]1(O)C[C@H]2CN(CCc3c([nH]c4ccccc34)[C@@](C(=O)OC)(c3cc4c(cc3OC)N(C=O)[C@H]3[C@@](O)(C(=O)OC)[C@H](OC(C)=O)[C@]5(CC)C=CCN6CC[C@]43[C@@H]65)C2)C1 [vincristine] + NC(=O)c1ccc(N(C(N)=O)c2c(F)cccc2F)nc1-c1ccc(F)cc1F [VX702] (first compound 0.0001 µM, partner dose 0.4 µM)	43.7
Cc1ccc(Nc2nccc(N(C)c3ccc4c(C)n(C)nc4c3)n2)cc1S(N)(=O)=O [Pazopanib] + C=CCNC1=C2C[C@@H](C)C[C@H](OC)[C@H](O)[C@@H](C)/C=C(\C)[C@H](OC(N)=O)[C@@H](OC)/C=C\C=C(/C)C(=O)NC(=CC1=O)C2=O [Tanespimycin] (first compound 0.4 µM, partner dose 0.002 µM)	142
O=C(Nc1cc(C(F)(F)F)cc(C(F)(F)F)c1)c1cc(Cl)ccc1O + Cn1c(=O)n(-c2ccc(C(C)(C)C#N)cc2)c2c3cc(-c4cnc5ccccc5c4)ccc3ncc21 [NVP-BEZ235] (first compound 0.016 µM, partner dose 0.004 µM)	72.1
Cc1cn(-c2cc(NC(=O)c3ccc(C)c(Nc4nccc(-c5cccnc5)n4)c3)cc(C(F)(F)F)c2)cn1 [nilotinib] + Cc1nc(Nc2ncc(C(=O)Nc3c(C)cccc3Cl)s2)cc(N2CCN(CCO)CC2)n1 [dasatanib] (first compound 0.2 µM, partner dose 0.004 µM)	93.9
Cc1cc(Nc2cc(N3CCN(C)CC3)nc(Sc3ccc(NC(=O)C4CC4)cc3)n2)n[nH]1 [Tozasertib] + O=C(O)c1ccc2c(c1)nc(Nc1cccc(Cl)c1)c1ccncc12 [CX4945] (first compound 0.006 µM, partner dose 0.4 µM)	115
O=C(Nc1cc(C(F)(F)F)cc(C(F)(F)F)c1)c1cc(Cl)ccc1O + CO[C@H]1C[C@@H]2CC[C@@H](C)[C@@](O)(O2)C(=O)C(=O)N2CCCC[C@H]2C(=O)O[C@H]([C@H](C)C[C@@H]2CC[C@@H](OCCO)[C@H](OC)C2)CC(=O)[C@H](C)/C=C(\C)[C@@H](O)[C@@H](OC)C(=O)[C@H](C)C[C@H](C)/C=C/C=C/C=C/1C [everolimus] (first compound 0.016 µM, partner dose 0.02 µM)	77.3
Cc1cc(Nc2cc(N3CCN(C)CC3)nc(Sc3ccc(NC(=O)C4CC4)cc3)n2)n[nH]1 [Tozasertib] + Nc1cccc2c1CN(C1CCC(=O)NC1=O)C2=O [lenalidomide] (first compound 0.006 µM, partner dose 1 µM)	113
O=C(Nc1cc(C(F)(F)F)cc(C(F)(F)F)c1)c1cc(Cl)ccc1O + Cn1nnc2c(C(N)=O)ncn2c1=O [temozolomide] (first compound 0.016 µM, partner dose 2 µM)	39.2
COc1cc([C@@H]2c3cc4c(cc3[C@@H](O[C@@H]3O[C@@H]5CO[C@@H](C)O[C@H]5[C@H](O)[C@H]3O)[C@H]3COC(=O)[C@H]23)OCO4)cc(OC)c1O [etoposide] + Cn1sc(=O)n(Cc2ccccc2)c1=O [TDZD-8] (first compound 0.02 µM, partner dose 0.4 µM)	97.1

Some of the entries above in another layout.
Compound,cleaved PARP positive nuclei fraction [%]
"O=C(Nc1cc(C(F)(F)F)cc(C(F)(F)F)c1)c1cc(Cl)ccc1O + Cn1c(=O)n(-c2ccc(C(C)(C)C#N)cc2)c2c3cc(-c4cnc5ccccc5c4)ccc3ncc21 [NVP-BEZ235] (first compound 0.016 µM, partner dose 0.004 µM)",72.1
"O=C(Nc1cc(C(F)(F)F)cc(C(F)(F)F)c1)c1cc(Cl)ccc1O + CO[C@H]1C[C@@H]2CC[C@@H](C)[C@@](O)(O2)C(=O)C(=O)N2CCCC[C@H]2C(=O)O[C@H]([C@H](C)C[C@@H]2CC[C@@H](OCCO)[C@H](OC)C2)CC(=O)[C@H](C)/C=C(\C)[C@@H](O)[C@@H](OC)C(=O)[C@H](C)C[C@H](C)/C=C/C=C/C=C/1C [everolimus] (first compound 0.016 µM, partner dose 0.02 µM)",77.3
